Values from PubChem BioAssay AID652272 (Drosophila RNAi Screening Center, 2013)

Test: 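Genes whose knock-down decreases or increases Hedgehog reporter output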 (primary screen)
System: Drosophila clone 8 (Cl8) cells
Reagent: long dsRNA against Drosophila genes
Measured: 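Firefly light from a Hedgehog-responsive ptc promoter reporter and Renilla reference light, both read on a plate reader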
Direction: firefly Hh reporter signal: higher = more ptc reporter light; Renilla reference signal: higher = more Renilla control light
Call rule: 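Called a hit if the two-replicate mean z-score lies below -2 or above +3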
Meaning of the calls: active = hit: reporter lowered or raised; inactive = not a hit
The screen tested about 21,000 reagents; this is an unselected part of those that have a named target and a result. In the full data, 503 (2.4%) got an active call. 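Raw plate light values, not normalised; calls rest on replicate z-scores that were not deposited; hits include reporter decreases as well as increases.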 Unmarked entries are inactive. Names joined by + are all predicted targets of the reagent. Not stated in the record: the amount of reagent, the time to read-out.

predicted target | dsRNA | firefly Hh reporter signal, replicate 1 | firefly Hh reporter signal, replicate 2 | firefly Hh reporter signal, replicate 3 | Renilla reference signal, replicate 1 | Renilla reference signal, replicate 2
CG9391 (GeneID 40346) | DRSC11858 | 90552 | 91121 | – | 3094 | 2167
Dnaaf6 (GeneID 39598) | DRSC10473 | 99409 | – | – | 3671 | 2672
sage (GeneID 41105) | DRSC14580 | 4.96e5 | 89985 | – | 3776 | 3776
Cpes (GeneID 37782) | DRSC04475 | 34998 (active) | 26796 | – | 2306 | 1984
CG6923 (GeneID 41420) | DRSC16136 | 1.13e5 | 1.02e5 | – | 6016 | 4240
CG15625 (GeneID 33694) | DRSC00460 | 1.28e5 | 52806 | – | 3650 | 5544
Npl4 (GeneID 43091) | DRSC15615 | 72266 | 57146 | – | 2043 | 2272
Npl4 (GeneID 43091) | DRSC15616 | 4.24e5 | 99491 | – | 24849 | 3250
Sfp53D (GeneID 8673983) | DRSC05625 | 1.16e5 | 2.28e5 | – | 3368 | 8667
mRpL43 (GeneID 37750) | DRSC04508 | 1.11e5 | 6.29e5 | 69859 | 3922 | 37748
CG43069 (GeneID 12798338) | DRSC05752 | 89597 | 2.10e5 | – | 2423 | 8928
CG30413 (GeneID 246601) | DRSC04001 | 1.35e5 | 1.92e5 | – | 2940 | 8068
CG3999 (GeneID 41253) | DRSC15534 | 62672 | 1.07e5 | – | 1557 | 2513
Nepl9 (GeneID 35020) | DRSC02255 | 98205 | 56327 | – | 2517 | 4960
CG14641 (GeneID 40529) | DRSC12227 | 1.00e5 (active) | 61971 | – | 6216 | 3671
CG17078 (GeneID 33195) | DRSC00484 | 1.28e5 | 90776 | – | 3088 | 1842
prod (GeneID 37187) | DRSC07667 | 84400 | 65974 | – | 3667 | 2818
Ccp84Ad (GeneID 40822) | DRSC12589 | 86396 | 5.13e5 | 1.04e5 | 3431 | 4755
CG43244 (GeneID 12798420) | DRSC05336 | 1.45e5 | 2.34e5 | – | 3735 | 11082
CG7856 (GeneID 35533) | DRSC04896 | 1.11e5 | 1.17e5 | – | 2394 | 8499
CG14718 (GeneID 41413) | DRSC14941 | 1.67e5 | 1.23e5 | – | 7065 | 4935
Gs1l (GeneID 33653) | DRSC00754 | 66114 | 41321 | – | 2038 | 4848
RpS25 (GeneID 41343) | DRSC16837 | 49744 | 74682 | – | 1997 | 2693

Not a retest: 7 of the entries above.
predicted target | dsRNA | firefly Hh reporter signal, replicate 1 | firefly Hh reporter signal, replicate 2 | firefly Hh reporter signal, replicate 3 | Renilla reference signal, replicate 1 | Renilla reference signal, replicate 2
prod (GeneID 37187) | DRSC07667 | 84400 | 65974 | – | 3667 | 2818
Ccp84Ad (GeneID 40822) | DRSC12589 | 86396 | 5.13e5 | 1.04e5 | 3431 | 4755
CG43244 (GeneID 12798420) | DRSC05336 | 1.45e5 | 2.34e5 | – | 3735 | 11082
CG7856 (GeneID 35533) | DRSC04896 | 1.11e5 | 1.17e5 | – | 2394 | 8499
CG14718 (GeneID 41413) | DRSC14941 | 1.67e5 | 1.23e5 | – | 7065 | 4935
Gs1l (GeneID 33653) | DRSC00754 | 66114 | 41321 | – | 2038 | 4848
RpS25 (GeneID 41343) | DRSC16837 | 49744 | 74682 | – | 1997 | 2693

Next results:
predicted target | dsRNA | firefly Hh reporter signal, replicate 1 | firefly Hh reporter signal, replicate 2 | firefly Hh reporter signal, replicate 3 | Renilla reference signal, replicate 1 | Renilla reference signal, replicate 2
Cyp6d2 (GeneID 37594) | DRSC04606 | 1.15e5 | 4.85e5 | 66529 | 2828 | 2920
robl22E (GeneID 33412) | DRSC00289 | 1.41e5 | 1.26e5 | – | 3242 | 3009
CG7600 (GeneID 39267) | DRSC09681 | 1.25e5 | 71642 | – | 6513 | 4285
Drsl4 (GeneID 317954) | DRSC08034 | 90785 | 2.07e5 | – | 2642 | 8752
CG6614 (GeneID 34583) | DRSC02974 | 97275 | 57259 | – | 4112 | 2852
mon2 (GeneID 326157) | DRSC03112 | 82707 | 53721 | – | 2953 | 4666
Zif (GeneID 40795) | DRSC12514 | 99789 | 58904 | – | 4595 | 2752
az2 (GeneID 35682) | DRSC07580 | 1.04e5 | 54746 | – | 4151 | 1133
flap (GeneID 37519) | DRSC03918 | 99668 | 3.13e5 | – | 2925 | 13372
flap (GeneID 37519) | DRSC04087 | 49554 | 58089 | – | 2520 | 3097
CG34135 + CG11768 | DRSC12702 | 1.85e5 | – | – | 3796 | –
CR33319 (GeneID 3772025) | DRSC01826 | 1.82e5 | 3.62e5 | – | 4340 | 16753
fau (GeneID 41291) | DRSC12816 | 1.52e5 | – | – | 3193 | –
fau (GeneID 41291) | DRSC12817 | 1.85e5 | – | – | 3792 | –
fau (GeneID 41291) | DRSC16943 | 1.29e5 | 93564 | – | 5328 | 3862
fau (GeneID 41291) | DRSC16944 | 52951 | 1.36e5 | – | 1735 | 3696
fau (GeneID 41291) | DRSC16945 | 1.20e5 | 4.76e5 | 1.91e5 | 2112 | 2841
CG30460 (GeneID 36924) | DRSC06559 | 1.11e5 | 47732 | – | 3226 | 3968
CG30460 (GeneID 36924) | DRSC06560 | 28102 | 11937 | – | 1095 | 1133
CR11023 (GeneID 33155) | DRSC00302 | 1.48e5 | 85383 | – | 3548 | 1960
dlg1 (GeneID 32083) | DRSC18895 | 3.34e5 | 90877 | – | 19275 | 2260
dlg1 (GeneID 32083) | DRSC18896 | 4.26e5 | 1.64e5 | – | 22480 | 3383
dlg1 (GeneID 32083) | DRSC19767 | 97130 | 3.16e5 | – | 4203 | 12272
dlg1 (GeneID 32083) | DRSC20324 | 1.49e5 | 86061 | – | 3574 | 2328
lncRNA:CR43613 (GeneID 12798296) | DRSC13943 | 45932 | 2.53e5 | – | 12589 | 5288
Recs1 (GeneID 41724) | DRSC16545 | 98227 | 84726 | – | 2528 | 2210
Cep97 (GeneID 33610) | DRSC00637 | 1.00e5 | 91081 | – | 4009 | 3936
Asx (GeneID 36612) | DRSC05924 | 40123 (active) | 14375 | – | 1472 | 1760
grk (GeneID 34171) | DRSC03540 | 1.15e5 | 72915 | – | 5013 | 2193
robo2 (GeneID 44522) | DRSC00377 | 1.53e5 | 97041 | – | 3484 | 2689
robo2 (GeneID 44522) | DRSC00378 | 1.12e5 | 74385 | – | 2072 | 1956
robo2 (GeneID 44522) | DRSC00686 | 1.24e5 | 69493 | – | 2955 | 1862
robo2 (GeneID 44522) | DRSC00691 | 57114 | 34877 | – | 2555 | 2380
alien (GeneID 34225) | DRSC03482 | 71865 | 84092 | – | 2256 | 2618
